Data on 39 targets can be found in the supplement of paper PMC12067093, “Discovery and optimisation of a covalent ligand for TRIM25 and its application to targeted protein ubiquitination” (Chemical Science, 2025).

The chains behind the UniProt entries cited, without tags or fusion partners. Where a name states a change or a piece, a line headed by the entry shows the natural chain unless it says otherwise.
UniProt O95625: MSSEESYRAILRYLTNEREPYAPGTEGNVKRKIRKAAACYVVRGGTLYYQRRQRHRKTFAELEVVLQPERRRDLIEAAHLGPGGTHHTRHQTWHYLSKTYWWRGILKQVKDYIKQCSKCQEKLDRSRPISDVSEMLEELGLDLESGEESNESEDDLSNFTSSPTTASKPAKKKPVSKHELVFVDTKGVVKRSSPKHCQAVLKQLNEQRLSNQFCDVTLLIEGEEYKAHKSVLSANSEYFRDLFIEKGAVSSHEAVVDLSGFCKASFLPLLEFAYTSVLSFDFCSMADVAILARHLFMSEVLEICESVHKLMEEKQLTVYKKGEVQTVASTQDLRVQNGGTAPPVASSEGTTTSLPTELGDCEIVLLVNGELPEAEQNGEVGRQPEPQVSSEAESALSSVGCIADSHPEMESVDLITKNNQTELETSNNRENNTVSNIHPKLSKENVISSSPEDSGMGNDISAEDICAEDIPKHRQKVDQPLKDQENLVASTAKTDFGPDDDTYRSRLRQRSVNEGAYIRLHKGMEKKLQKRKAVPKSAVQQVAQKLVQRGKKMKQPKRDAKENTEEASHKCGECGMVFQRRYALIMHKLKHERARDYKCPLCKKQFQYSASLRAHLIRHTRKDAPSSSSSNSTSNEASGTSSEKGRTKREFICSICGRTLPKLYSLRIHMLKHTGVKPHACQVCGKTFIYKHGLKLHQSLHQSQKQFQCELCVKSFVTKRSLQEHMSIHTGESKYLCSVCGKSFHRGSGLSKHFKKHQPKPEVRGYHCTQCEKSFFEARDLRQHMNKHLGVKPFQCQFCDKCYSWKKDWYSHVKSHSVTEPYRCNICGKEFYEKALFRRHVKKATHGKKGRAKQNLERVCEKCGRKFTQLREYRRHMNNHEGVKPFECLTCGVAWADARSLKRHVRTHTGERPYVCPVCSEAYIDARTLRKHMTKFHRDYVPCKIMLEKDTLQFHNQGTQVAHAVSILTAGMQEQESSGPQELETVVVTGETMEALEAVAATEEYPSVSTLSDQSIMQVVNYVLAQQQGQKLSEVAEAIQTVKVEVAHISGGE
UniProt Q86WB0: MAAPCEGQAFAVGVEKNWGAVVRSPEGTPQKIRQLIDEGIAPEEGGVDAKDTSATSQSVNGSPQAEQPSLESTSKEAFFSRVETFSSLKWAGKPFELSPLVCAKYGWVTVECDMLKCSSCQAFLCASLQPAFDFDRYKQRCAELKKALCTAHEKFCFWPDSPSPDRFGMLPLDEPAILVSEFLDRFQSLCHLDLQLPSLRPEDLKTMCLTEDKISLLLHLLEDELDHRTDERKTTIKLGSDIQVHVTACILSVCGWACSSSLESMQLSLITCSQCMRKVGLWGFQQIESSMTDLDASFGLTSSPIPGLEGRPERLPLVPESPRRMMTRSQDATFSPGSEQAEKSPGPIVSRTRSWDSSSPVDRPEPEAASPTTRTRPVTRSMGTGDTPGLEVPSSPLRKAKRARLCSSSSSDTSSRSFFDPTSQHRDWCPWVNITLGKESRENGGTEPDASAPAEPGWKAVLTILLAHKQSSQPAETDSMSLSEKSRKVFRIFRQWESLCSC
UniProt Q9NUD5: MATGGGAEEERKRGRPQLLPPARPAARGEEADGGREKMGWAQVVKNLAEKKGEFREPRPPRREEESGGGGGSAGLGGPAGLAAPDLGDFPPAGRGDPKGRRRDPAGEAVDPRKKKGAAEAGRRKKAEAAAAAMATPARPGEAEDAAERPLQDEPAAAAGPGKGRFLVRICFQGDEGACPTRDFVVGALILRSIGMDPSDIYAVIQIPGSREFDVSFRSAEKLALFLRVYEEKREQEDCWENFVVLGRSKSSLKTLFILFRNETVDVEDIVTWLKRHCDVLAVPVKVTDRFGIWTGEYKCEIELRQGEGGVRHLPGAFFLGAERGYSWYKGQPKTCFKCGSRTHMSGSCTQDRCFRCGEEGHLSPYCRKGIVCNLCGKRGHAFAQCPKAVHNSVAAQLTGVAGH
UniProt P18887, whole entry, looked up: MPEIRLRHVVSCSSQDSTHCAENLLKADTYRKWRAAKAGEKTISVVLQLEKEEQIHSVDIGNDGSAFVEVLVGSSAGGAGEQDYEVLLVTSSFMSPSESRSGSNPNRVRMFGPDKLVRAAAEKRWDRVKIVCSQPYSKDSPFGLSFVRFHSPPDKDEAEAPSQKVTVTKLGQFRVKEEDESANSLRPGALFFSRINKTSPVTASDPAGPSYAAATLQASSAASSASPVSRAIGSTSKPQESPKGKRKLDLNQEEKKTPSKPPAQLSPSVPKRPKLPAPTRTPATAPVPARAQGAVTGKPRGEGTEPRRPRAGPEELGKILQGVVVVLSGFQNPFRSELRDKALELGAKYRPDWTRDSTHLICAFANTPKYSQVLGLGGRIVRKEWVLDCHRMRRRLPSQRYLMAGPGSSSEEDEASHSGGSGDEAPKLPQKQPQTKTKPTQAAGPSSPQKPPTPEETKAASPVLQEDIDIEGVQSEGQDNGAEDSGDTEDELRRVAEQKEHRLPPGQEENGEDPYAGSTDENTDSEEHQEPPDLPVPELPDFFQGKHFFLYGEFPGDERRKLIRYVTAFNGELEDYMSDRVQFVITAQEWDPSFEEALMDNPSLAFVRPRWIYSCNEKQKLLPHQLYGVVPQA
UniProt P27348: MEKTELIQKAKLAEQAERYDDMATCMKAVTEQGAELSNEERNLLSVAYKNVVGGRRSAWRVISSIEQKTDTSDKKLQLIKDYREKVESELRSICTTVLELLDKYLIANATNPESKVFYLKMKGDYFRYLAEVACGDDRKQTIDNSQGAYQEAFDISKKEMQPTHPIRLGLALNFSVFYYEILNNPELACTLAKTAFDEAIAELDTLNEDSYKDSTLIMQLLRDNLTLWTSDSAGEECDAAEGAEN
UniProt Q8NCP5: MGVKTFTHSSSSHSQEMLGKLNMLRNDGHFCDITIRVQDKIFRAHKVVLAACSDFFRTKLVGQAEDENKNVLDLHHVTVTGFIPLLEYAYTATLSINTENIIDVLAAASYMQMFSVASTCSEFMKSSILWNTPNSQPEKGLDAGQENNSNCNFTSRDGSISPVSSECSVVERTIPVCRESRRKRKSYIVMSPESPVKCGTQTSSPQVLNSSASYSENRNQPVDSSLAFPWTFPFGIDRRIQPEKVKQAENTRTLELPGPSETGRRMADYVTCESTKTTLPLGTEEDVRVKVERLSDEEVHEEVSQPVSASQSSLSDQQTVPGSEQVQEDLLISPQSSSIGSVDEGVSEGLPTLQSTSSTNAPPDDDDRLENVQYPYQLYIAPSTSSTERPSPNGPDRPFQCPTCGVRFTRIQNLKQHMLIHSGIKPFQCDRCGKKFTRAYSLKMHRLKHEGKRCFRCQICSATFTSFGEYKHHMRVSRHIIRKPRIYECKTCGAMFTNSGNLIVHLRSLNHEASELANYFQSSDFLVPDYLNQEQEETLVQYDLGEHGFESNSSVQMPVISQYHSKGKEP
UniProt Q9UPT8: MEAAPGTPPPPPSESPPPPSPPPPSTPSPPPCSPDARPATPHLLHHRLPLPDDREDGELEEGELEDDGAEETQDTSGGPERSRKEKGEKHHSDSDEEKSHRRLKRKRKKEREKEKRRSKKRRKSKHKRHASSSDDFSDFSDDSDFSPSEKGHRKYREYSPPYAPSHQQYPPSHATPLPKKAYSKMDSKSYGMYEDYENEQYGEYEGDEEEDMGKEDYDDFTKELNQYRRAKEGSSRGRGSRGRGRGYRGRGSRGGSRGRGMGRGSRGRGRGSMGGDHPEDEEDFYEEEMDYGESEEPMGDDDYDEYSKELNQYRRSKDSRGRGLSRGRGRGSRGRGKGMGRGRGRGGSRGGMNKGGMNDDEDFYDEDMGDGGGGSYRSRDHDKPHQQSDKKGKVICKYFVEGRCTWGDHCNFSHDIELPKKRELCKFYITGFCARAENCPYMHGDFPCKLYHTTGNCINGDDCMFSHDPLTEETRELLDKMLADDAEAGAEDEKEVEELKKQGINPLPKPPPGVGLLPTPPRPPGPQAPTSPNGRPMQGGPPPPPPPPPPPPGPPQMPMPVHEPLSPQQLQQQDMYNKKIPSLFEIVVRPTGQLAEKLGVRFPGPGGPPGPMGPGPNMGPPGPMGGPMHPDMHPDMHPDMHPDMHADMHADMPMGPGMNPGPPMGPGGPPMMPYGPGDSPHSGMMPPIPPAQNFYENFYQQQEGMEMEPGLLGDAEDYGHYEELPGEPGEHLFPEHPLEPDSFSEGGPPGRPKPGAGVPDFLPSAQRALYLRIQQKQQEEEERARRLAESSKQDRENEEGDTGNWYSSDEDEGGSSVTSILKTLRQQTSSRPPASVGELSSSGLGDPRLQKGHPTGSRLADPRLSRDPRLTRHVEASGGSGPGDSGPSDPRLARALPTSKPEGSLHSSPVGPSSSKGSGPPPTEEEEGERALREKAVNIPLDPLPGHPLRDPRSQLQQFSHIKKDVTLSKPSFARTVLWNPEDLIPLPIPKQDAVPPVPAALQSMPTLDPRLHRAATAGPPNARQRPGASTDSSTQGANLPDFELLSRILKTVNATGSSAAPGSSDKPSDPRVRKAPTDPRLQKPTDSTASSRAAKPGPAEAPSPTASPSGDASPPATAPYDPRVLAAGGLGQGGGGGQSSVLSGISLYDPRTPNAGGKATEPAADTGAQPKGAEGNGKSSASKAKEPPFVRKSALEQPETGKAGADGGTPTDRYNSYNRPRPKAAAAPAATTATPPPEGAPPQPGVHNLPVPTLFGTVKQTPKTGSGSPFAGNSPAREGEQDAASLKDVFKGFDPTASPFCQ
UniProt Q8IZH2: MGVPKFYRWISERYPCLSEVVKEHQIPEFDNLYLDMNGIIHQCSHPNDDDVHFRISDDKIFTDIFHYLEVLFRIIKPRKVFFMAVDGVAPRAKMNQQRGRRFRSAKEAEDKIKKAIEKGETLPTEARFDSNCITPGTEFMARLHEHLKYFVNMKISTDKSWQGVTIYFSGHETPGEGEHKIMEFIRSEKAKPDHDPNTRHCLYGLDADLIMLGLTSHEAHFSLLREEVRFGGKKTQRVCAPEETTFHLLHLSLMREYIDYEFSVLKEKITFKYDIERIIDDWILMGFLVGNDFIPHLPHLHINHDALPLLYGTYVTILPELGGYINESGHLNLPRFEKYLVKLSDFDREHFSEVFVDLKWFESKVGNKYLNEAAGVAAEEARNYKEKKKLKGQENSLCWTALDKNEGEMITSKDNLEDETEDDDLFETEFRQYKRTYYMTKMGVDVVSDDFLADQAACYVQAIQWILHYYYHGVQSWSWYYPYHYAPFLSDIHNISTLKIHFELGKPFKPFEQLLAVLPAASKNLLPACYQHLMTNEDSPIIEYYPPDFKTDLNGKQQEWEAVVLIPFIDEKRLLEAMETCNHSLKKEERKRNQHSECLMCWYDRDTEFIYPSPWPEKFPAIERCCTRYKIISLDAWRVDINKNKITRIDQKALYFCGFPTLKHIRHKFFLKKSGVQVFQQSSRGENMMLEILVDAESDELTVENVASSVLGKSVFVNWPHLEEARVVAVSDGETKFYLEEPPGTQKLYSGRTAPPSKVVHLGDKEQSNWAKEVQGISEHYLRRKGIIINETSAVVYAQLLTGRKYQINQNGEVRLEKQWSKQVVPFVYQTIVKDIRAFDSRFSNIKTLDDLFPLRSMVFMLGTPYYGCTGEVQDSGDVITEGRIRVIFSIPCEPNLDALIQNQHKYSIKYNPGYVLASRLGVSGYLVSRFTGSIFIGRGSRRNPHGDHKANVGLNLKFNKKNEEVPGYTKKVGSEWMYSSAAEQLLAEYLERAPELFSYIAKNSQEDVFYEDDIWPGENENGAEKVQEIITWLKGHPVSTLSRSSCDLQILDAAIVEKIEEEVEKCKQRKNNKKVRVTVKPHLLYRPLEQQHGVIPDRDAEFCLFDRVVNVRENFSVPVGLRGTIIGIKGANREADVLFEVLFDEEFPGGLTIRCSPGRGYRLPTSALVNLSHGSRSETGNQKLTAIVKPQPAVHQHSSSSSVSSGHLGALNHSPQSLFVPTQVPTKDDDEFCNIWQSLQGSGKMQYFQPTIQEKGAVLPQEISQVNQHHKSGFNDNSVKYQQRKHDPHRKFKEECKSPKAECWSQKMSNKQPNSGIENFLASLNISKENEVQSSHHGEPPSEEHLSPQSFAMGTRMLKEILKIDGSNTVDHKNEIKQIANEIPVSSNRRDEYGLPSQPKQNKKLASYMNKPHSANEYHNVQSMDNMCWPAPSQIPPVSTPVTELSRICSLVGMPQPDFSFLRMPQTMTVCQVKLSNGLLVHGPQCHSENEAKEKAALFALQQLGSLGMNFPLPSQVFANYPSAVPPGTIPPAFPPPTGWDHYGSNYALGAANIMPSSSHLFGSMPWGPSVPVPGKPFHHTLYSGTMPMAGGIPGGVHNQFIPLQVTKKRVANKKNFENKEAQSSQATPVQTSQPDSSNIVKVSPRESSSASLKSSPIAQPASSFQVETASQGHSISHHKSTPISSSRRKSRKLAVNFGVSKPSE

Some of the results follow.

Compound in the assay: CC1Cc2ccccc2N1C(=O)C1CCCN(C1)C(=O)CCl (mixture of isomers) [TRIM25 ligand 11 (diastereomer mixture)]
As to the kind of experiment: probe-labelled cysteine peptide fold change vs DMSO (competition) (log2 fold change); higher = less target engagement (more negative = stronger competition). Particulars: THP-1, incubation time: 4 h.
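Further: competitive chemoproteomic profiling in live THP-1 cells with an iodoacetamide desthiobiotin (IA-DTB) probe, comparing probe-labelled peptide intensities in compound-treated cells against DMSO-treated controls.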

For “YDJC_A8MPS7_212_WTDAFVGLSTCGR (UniProt A8MPS7)”, the “probe-labelled cysteine peptide fold change” value reads like this: (10 µM) -0.155; (50 µM) -0.34.

Turning to “ZBTB11_O95625_796_HLGVKPFQCQFCDK (UniProt O95625)”, the “probe-labelled cysteine peptide fold change” value was -0.121 (10 µM) and -0.24 (50 µM).

On to “ZBTB11_O95625_943_DYVPCK (UniProt O95625)”, for which the “probe-labelled cysteine peptide fold change” value (10 µM) is 0.0102 and the “probe-labelled cysteine peptide fold change” value (50 µM) came out at 0.0157.

In the case of “ZC3HC1_Q86WB0_102_WAGKPFELSPLVCAK (UniProt Q86WB0)”, the “probe-labelled cysteine peptide fold change” value runs as follows: (10 µM) 0.0693; (50 µM) -0.0601.

Turning to “XPNPEP1_Q9NQW7_48_NSEYVTEPIQAYIIPSGDAHQSEYIAPCDCRR (UniProt Q9NQW7)”, the “probe-labelled cysteine peptide fold change” value was 0.208 (10 µM) and -0.287 (50 µM).

On to “ZCCHC3_Q9NUD5_238_REQEDCWENFVVLGR (UniProt Q9NUD5)”, for which the “probe-labelled cysteine peptide fold change” value is, setting by setting: (10 µM) 0.192; (50 µM) 0.112.

“XPO4_Q9C0E2_723_ANLVIQCENWWNLAK (UniProt Q9C0E2)”: the “probe-labelled cysteine peptide fold change” value by setting is: (10 µM) 0.0686; (50 µM) -0.105.

For the target “ZBTB11_O95625_737_YLCSVCGK (UniProt O95625)”, the “probe-labelled cysteine peptide fold change” value (10 µM) is -0.0498 and the “probe-labelled cysteine peptide fold change” value (50 µM) stood at 0.228.

For “XRCC1_P18887_615_WIYSCNEK (UniProt P18887)”, the “probe-labelled cysteine peptide fold change” value is, setting by setting: (10 µM) -0.00921; (50 µM) 0.0387.

Turning to “XRCC5_P13010_296_ETVYCLNDDDETEVLKEDIIQGFR (UniProt P13010)”, the “probe-labelled cysteine peptide fold change” value is, setting by setting: (10 µM) -0.169; (50 µM) -0.0628.

Regarding “XPO5_Q9HAV4_977_EVMDLITVCCVSK (UniProt Q9HAV4)”, the “probe-labelled cysteine peptide fold change” value (10 µM) was -0.0798 and the “probe-labelled cysteine peptide fold change” value (50 µM) came to 0.0186.

Turning to “YY1_P25490_390_IHTGDRPYVCPFDGCNK (UniProt P25490)”, the “probe-labelled cysteine peptide fold change” value runs as follows: (10 µM) 0.0873; (50 µM) 0.212.

With “ZC3HAV1_Q7Z2W4_567_GYCNPGIHLCSVGSYTINFR (UniProt Q7Z2W4)”, the “probe-labelled cysteine peptide fold change” value by setting is: (10 µM) 0.189; (50 µM) 0.076.

Regarding “XRCC1_P18887_132_IVCSQPYSK (UniProt P18887)”, the “probe-labelled cysteine peptide fold change” value was -0.107 (10 µM) and 0.0317 (50 µM).

As to “YWHAQ_P27348_134_YLAEVACGDDR (UniProt P27348)”, the “probe-labelled cysteine peptide fold change” value stood at 0.0689 (10 µM) and 0.0518 (50 µM).

Consider “ZBTB44_Q8NCP5_31_NDGHFCDITIR (UniProt Q8NCP5)”, for which the “probe-labelled cysteine peptide fold change” value is, setting by setting: (10 µM) 0.21; (50 µM) 0.297.

With “ZC3H4_Q9UPT8_433_FYITGFCAR (UniProt Q9UPT8)”, the “probe-labelled cysteine peptide fold change” value by setting is: (10 µM) -0.116; (50 µM) 0.155.

As to “ZBTB7A_O95365_34_TQGLLCDVVILVEGR (UniProt O95365)”, the “probe-labelled cysteine peptide fold change” value (10 µM) was determined as 0.149 and the “probe-labelled cysteine peptide fold change” value (50 µM) is -0.0545.

With “ZC3HAV1_Q7Z2W4_831_NCPYDAK (UniProt Q7Z2W4)”, the “probe-labelled cysteine peptide fold change” value is, setting by setting: (10 µM) 0.0735; (50 µM) 0.175.

With “ZC3H14_Q6PJT7_647+652_CTKPDCPFTHVSR (UniProt Q6PJT7)”, the “probe-labelled cysteine peptide fold change” value is 0.0281 (10 µM) and -0.237 (50 µM).

On to “ZFAND1_Q8TCF1_28+33_DFLPFVCDDCSGIFCLEHR (UniProt Q8TCF1)”, for which the “probe-labelled cysteine peptide fold change” value reads like this: (10 µM) 0.0867; (50 µM) -0.272.

For “XRN1_Q8IZH2_598_NQHSECLMCWYDRDTEFIYPSPWPEK (UniProt Q8IZH2)”, the “probe-labelled cysteine peptide fold change” value reads like this: (10 µM) 0.0745; (50 µM) 0.142.

As for “ZBTB2_Q8N680_296_VPLTLCSNAADLGK (UniProt Q8N680)”, the “probe-labelled cysteine peptide fold change” value by setting is: (10 µM) -0.0308; (50 µM) -0.0339.

“ZCCHC3_Q9NUD5_372+375_GIVCNLCGK (UniProt Q9NUD5)”: the “probe-labelled cysteine peptide fold change” value is -0.0208 (10 µM) and 0.0519 (50 µM).

As to “ZC3HC1_Q86WB0_190_FQSLCHLDLQLPSLRPEDLK (UniProt Q86WB0)”, the “probe-labelled cysteine peptide fold change” value turned out to be 0.379 (10 µM) and 0.19 (50 µM).

Turning to “ZC3H7B_Q9UGR2_91_AACYFTMGLYEK (UniProt Q9UGR2)”, the “probe-labelled cysteine peptide fold change” value (10 µM) was -0.235 and the “probe-labelled cysteine peptide fold change” value (50 µM) was -0.0506.

With “ZBTB44_Q8NCP5_272_MADYVTCESTK (UniProt Q8NCP5)”, the “probe-labelled cysteine peptide fold change” value is -0.0378 (10 µM) and -0.103 (50 µM).

Regarding “ZCCHC8_Q6NZY4_607_SEAGHASSPDSEVTSLCQK (UniProt Q6NZY4)”, the “probe-labelled cysteine peptide fold change” value by setting is: (10 µM) 0.197; (50 µM) -0.304.

“XPO1_O14980_528_DLLGLCEQKR (UniProt O14980)”: the “probe-labelled cysteine peptide fold change” value (10 µM) is -0.0047 and the “probe-labelled cysteine peptide fold change” value (50 µM) was -0.00928.

Take “XRN1_Q8IZH2_132_FDSNCITPGTEFMAR (UniProt Q8IZH2)”: the “probe-labelled cysteine peptide fold change” value (10 µM) is 0.108 and the “probe-labelled cysteine peptide fold change” value (50 µM) was found to be 0.199.

“XPNPEP1_Q9NQW7_443_ECFTYVLK (UniProt Q9NQW7)”: the “probe-labelled cysteine peptide fold change” value reads like this: (10 µM) 0.00776; (50 µM) 0.112.

Take “ZER1_Q7Z7L7_337_RPLQFLGLFENSLCR (UniProt Q7Z7L7)”: the “probe-labelled cysteine peptide fold change” value was 0.0847 (10 µM) and -0.0389 (50 µM).

As for “ZC3H7B_Q9UGR2_909_CAHGQEELNEWLDRR (UniProt Q9UGR2)”, the “probe-labelled cysteine peptide fold change” value by setting is: (10 µM) -0.164; (50 µM) -0.0944.

In the case of “XPNPEP1_Q9NQW7_502_SALWDSGLDYLHGTGHGVGSFLNVHEGPCGISYK (UniProt Q9NQW7)”, the “probe-labelled cysteine peptide fold change” value by setting is: (10 µM) 0.18; (50 µM) -0.182.

“ZC3H12D_A2A288_111_ETFSCR (UniProt A2A288)”: the “probe-labelled cysteine peptide fold change” value is, setting by setting: (10 µM) -0.0665; (50 µM) 0.136.

With “XRN1_Q8IZH2_657_ALYFCGFPTLK (UniProt Q8IZH2)”, the “probe-labelled cysteine peptide fold change” value was 0.0122 (10 µM) and 0.07 (50 µM).

In the case of “ZC3H4_Q9UPT8_448_AENCPYMHGDFPCK (UniProt Q9UPT8)”, the “probe-labelled cysteine peptide fold change” value is -0.0343 (10 µM) and 0.123 (50 µM).

Take “ZC3H13_Q5T200_1643_TTCHAPGHEK (UniProt Q5T200)”: the “probe-labelled cysteine peptide fold change” value (10 µM) was -0.0244 and the “probe-labelled cysteine peptide fold change” value (50 µM) is -0.0669.

Take “ZC3H12D_A2A288_260_KPKPPEPSWQHCPYGK (UniProt A2A288)”: the “probe-labelled cysteine peptide fold change” value was determined as 0.0945 (10 µM) and 0.169 (50 µM).
